Read-outs that look alike come from different tables or passages of the source.
Legend:
E. coli = assay: microbe, parasite or virus in culture; details: Escherichia coli, read-out: E. coli MIC (mM)
Ft-MglA [1] = target: T1, Ft-MglA (Francisella tularensis, UniProt Q5NFG1); assay: biochemical; details: read-out: ΔTm (°C) ^1 / Ft-MglA
Ft-MglA [2] = target: T1, Ft-MglA; assay: biochemical; details: read-out: ΔTm (°C) ^1

The chains behind the UniProt entries cited, without tags or fusion partners. Residues count along the entry.
UniProt Q5NFG1, 1-205: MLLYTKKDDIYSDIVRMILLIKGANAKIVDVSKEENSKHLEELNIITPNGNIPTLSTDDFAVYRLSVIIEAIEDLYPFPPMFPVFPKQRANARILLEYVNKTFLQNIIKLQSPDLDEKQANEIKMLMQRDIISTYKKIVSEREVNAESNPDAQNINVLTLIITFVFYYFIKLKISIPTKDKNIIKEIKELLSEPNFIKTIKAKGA

Q: Which MIC (E. coli) does the source give for `CC(C)(C)CC(C)(C)c1ccc(OCCOCC[N+](C)(C)Cc2ccccc2)cc1` [Benzethonium chloride] here?
A: The MIC was 0.05 mM.

Q: What about the ΔTm at 40 µM (Ft-MglA [1]) of the same compound?
A: Its ΔTm at 40 µM is 8.5 ± 1.7 °C.

Q: With `O=C(CCCN1CCC(O)(c2ccc(Cl)cc2)CC1)c1ccc(F)cc1` [Haloperidol] as the compound, how does the ΔTm at 40 µM (Ft-MglA [2]) read?
A: Its ΔTm at 40 µM is 4.6 ± 1.7 °C.

— PMC3553074 (PLoS ONE, 2013)
